Tested on: LUHMES cells
Assay: MitoMet (UKN4b) neurite outgrowth assay
Type: cell-based
Conditions: Homo sapiens; benchmark response 25%, neurite area, 24 h exposure, three independent experiments; read-out: BMC25 neurite outgrowth
Experimental: Figure 1 (A) A strategy scheme to assess metabolite-mediated hazard in NAMs used for neurotoxicity or developmental neurotoxicity. Parent and metabolite compounds are tested separately in the respective assay. This strategy is applicable when there is prior knowledge of metabolite formation. A decision rule based on the relative toxicities (X) of the parent and metabolite may be applied to decide whether next-generation risk assessment (NGRA) should be applied to the metabolite. The value of X may be defined according to the problem formulation and the NAM used. (B) An assay scheme of the neurite outgrowth assay used here for exemplification: Proliferating LUHMES cells were replated one day before differentiation was initiated (day −1). […] Neurite outgrowth and viability were determined 24 h later, using automated high content imaging. […] In each independent experiment, the technical replicates were measured and averaged. A benchmark response (BMR) of 25% was used as specified in the detailed assay description, and the respective benchmark concentration (BMC25) was determined. […] Similar images are used for neurite quantification. […]
The MitoMet neurite outgrowth assay was performed as previously described. […] Neurite outgrowth and viability were determined 24 h later, using automated high content imaging. […]

COCC(=O)Nc1cc(Sc2ccccc2)ccc1N/C(=N\C(=O)OC)NC(=O)OC [Febantel]
IC25: 11.7 µM

From PMC12428754, “Testing Strategies for Metabolite-Mediated Neurotoxicity” (International Journal of Molecular Sciences, 2025)
